From the supplement of paper PMC10849652
The other results are listed elsewhere or left out.

Chains of the proteins cited; added tags and fusions are not shown. Lines headed by an entry give the natural chain unless they say otherwise; changes in a name come on top.
UniProt Q9P2E5: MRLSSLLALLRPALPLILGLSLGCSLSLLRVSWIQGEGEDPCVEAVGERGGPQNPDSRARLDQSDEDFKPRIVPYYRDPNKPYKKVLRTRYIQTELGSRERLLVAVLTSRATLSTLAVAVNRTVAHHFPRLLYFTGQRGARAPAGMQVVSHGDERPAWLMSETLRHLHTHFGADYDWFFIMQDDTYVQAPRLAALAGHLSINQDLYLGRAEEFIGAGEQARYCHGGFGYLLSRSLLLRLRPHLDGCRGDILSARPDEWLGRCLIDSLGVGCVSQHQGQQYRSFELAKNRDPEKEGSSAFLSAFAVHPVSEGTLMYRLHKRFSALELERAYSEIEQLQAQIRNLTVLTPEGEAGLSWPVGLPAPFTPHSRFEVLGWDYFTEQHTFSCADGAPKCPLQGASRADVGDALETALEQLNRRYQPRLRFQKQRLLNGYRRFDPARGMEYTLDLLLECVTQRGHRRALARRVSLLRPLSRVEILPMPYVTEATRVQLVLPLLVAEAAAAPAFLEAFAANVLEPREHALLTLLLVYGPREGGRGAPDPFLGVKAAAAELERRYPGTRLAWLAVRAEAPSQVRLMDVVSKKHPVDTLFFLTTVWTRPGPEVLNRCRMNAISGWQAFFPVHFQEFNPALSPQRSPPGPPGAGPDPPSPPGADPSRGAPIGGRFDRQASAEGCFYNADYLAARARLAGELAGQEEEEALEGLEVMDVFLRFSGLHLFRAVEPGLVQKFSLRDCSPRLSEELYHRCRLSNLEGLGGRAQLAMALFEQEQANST
UniProt P38432, whole entry, looked up: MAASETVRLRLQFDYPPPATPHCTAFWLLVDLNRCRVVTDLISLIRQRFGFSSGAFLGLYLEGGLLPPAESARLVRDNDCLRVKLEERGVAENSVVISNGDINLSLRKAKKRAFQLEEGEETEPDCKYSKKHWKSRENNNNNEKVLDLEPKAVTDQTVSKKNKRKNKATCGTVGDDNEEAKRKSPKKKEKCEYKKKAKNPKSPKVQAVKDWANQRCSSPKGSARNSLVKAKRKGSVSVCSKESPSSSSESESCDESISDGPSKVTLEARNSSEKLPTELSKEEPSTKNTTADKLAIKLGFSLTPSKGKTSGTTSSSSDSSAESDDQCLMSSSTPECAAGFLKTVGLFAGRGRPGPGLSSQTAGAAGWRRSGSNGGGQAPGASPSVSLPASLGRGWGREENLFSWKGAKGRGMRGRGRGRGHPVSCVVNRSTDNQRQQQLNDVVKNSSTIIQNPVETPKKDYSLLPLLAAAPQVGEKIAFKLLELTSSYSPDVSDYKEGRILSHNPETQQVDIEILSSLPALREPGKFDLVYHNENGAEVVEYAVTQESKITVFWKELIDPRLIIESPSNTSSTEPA
UniProt P51798: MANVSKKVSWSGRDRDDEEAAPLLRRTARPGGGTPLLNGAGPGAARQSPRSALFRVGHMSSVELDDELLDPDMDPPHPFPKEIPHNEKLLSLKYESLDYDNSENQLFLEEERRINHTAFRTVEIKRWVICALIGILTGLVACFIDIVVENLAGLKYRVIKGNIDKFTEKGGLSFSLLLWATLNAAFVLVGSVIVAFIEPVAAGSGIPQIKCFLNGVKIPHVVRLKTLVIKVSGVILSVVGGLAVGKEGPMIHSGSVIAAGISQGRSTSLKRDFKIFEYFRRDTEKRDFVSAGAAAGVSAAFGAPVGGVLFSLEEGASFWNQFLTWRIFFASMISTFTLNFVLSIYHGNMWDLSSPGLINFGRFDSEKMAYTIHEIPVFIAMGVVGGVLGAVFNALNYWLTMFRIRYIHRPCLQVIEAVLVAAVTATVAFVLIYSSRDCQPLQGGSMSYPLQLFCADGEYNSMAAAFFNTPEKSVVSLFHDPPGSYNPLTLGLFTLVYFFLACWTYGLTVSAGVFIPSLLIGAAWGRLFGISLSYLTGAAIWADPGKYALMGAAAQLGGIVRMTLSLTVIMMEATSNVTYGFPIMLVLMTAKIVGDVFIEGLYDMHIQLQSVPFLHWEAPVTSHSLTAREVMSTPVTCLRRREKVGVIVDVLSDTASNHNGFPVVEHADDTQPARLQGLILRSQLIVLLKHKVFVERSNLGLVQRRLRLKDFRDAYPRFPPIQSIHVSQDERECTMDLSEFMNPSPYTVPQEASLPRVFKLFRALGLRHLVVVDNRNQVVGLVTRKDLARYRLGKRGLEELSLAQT
UniProt Q86X95: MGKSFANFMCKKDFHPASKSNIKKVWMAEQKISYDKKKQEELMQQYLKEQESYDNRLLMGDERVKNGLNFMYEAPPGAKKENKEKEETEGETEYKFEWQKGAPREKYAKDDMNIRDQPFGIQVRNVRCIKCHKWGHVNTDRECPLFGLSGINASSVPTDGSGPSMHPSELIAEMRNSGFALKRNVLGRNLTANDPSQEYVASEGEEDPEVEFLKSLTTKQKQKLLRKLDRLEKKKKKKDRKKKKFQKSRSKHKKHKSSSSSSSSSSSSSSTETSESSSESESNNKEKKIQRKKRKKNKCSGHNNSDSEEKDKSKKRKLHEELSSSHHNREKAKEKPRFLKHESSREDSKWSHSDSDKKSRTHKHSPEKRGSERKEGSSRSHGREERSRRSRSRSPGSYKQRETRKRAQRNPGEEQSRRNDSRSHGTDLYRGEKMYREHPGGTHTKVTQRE
UniProt Q8NCH0: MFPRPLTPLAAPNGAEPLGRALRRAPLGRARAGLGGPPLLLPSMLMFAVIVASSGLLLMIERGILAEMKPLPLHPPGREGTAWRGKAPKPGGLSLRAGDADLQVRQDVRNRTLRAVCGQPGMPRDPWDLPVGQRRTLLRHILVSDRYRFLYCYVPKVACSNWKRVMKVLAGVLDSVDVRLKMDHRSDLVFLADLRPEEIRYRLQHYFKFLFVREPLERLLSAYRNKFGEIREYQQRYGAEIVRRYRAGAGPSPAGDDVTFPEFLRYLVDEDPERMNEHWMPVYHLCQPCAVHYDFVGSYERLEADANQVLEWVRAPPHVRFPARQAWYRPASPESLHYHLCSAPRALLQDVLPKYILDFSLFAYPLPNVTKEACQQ
UniProt Q14011: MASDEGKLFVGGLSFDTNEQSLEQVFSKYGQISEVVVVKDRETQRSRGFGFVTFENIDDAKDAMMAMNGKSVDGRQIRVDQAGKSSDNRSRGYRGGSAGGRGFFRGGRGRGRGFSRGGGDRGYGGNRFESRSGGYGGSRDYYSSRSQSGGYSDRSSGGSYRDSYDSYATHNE
UniProt O75153: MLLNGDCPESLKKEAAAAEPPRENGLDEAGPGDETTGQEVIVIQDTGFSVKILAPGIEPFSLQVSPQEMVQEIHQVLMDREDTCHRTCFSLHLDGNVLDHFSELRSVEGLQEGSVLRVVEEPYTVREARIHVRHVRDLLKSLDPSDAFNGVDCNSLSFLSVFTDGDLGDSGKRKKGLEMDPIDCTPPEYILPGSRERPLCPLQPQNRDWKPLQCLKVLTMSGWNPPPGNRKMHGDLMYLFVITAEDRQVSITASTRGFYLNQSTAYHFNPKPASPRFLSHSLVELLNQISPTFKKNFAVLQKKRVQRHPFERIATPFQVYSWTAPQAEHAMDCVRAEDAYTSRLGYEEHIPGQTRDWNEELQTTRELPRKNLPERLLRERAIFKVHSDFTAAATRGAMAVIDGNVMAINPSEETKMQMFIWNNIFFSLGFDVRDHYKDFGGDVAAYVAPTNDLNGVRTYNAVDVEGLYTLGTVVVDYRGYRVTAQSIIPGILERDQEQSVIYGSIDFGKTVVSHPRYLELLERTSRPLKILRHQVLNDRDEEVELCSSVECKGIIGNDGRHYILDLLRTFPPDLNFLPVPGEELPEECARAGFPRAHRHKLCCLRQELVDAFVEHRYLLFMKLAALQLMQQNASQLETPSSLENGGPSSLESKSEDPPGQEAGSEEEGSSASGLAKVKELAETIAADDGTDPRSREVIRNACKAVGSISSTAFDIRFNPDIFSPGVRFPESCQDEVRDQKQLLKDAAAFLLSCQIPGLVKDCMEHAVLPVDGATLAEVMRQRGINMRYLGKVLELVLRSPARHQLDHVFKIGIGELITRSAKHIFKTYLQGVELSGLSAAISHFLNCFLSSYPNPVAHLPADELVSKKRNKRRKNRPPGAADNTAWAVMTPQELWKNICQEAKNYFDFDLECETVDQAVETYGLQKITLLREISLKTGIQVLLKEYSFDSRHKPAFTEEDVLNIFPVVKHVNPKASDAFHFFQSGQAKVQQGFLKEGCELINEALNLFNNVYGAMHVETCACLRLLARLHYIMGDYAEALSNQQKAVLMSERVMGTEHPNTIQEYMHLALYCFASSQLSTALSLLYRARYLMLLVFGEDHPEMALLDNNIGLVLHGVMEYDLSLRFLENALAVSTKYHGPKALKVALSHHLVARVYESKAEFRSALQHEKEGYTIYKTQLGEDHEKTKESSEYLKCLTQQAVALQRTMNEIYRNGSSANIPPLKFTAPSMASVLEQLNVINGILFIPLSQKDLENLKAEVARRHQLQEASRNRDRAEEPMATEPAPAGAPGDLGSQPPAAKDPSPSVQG
UniProt Q8WUD6: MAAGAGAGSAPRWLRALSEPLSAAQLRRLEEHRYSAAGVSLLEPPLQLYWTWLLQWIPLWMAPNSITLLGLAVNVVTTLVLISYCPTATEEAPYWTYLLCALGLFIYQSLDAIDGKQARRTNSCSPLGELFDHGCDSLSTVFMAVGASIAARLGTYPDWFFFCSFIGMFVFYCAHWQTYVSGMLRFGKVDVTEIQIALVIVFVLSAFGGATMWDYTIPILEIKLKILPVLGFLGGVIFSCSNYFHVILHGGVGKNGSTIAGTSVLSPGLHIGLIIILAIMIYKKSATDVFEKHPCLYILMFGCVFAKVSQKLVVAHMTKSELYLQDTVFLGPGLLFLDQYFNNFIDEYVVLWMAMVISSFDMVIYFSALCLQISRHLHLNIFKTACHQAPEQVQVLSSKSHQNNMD
UniProt Q14677: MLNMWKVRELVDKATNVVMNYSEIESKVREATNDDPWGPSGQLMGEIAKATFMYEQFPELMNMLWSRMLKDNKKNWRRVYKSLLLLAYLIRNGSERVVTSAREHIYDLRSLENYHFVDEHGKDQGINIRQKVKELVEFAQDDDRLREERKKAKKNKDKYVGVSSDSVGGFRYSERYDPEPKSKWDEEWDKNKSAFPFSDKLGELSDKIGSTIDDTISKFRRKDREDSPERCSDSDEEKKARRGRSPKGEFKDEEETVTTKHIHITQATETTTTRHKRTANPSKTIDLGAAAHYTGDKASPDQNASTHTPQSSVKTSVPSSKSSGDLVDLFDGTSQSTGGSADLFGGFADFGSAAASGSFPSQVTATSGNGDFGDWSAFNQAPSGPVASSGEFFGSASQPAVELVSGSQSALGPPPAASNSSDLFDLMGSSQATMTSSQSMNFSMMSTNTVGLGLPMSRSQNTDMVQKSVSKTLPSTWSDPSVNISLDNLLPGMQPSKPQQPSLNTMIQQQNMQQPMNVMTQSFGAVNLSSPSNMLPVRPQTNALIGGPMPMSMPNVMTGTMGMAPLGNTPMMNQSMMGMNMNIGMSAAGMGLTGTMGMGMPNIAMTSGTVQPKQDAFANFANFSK
UniProt Q9UBY8, whole entry, looked up: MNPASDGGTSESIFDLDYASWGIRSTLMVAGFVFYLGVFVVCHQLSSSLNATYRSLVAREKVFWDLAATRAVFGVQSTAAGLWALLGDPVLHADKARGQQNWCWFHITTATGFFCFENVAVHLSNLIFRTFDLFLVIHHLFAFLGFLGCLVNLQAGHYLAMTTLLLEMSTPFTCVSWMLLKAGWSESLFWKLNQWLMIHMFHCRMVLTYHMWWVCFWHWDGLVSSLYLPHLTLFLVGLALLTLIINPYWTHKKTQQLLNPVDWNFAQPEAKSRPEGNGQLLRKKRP
UniProt P51790: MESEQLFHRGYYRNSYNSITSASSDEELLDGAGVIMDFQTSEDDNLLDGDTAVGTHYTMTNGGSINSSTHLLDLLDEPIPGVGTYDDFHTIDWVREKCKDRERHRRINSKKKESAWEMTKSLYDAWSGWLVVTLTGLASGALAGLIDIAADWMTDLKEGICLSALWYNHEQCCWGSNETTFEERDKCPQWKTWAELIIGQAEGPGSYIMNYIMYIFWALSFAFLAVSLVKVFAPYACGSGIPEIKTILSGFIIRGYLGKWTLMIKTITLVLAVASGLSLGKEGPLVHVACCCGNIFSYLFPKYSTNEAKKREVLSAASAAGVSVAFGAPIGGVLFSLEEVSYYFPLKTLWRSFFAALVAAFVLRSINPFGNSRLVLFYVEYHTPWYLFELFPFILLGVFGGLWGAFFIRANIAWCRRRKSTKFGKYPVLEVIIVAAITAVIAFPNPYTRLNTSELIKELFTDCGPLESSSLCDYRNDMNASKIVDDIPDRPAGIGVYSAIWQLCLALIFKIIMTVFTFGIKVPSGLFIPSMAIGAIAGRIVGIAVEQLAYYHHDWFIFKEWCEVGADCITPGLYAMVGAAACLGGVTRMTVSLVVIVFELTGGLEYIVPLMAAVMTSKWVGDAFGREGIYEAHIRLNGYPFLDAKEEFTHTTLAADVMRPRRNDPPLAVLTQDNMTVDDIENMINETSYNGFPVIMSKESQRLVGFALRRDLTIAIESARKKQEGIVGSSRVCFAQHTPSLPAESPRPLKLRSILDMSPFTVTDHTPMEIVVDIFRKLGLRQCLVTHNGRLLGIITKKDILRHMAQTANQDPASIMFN

Tests used:
Test in all cases: log2 fold change, soluble protein after heating vs DMSO (PISA); higher = thermal stabilisation; K562 cells, 10 uM, 30 min; active = over 0.2 and 3.5 SD of the protein, either way, in both replicates (recomputed)
saracatinib = compound: CN1CCN(CCOc2cc(OC3CCOCC3)c3c(Nc4c(Cl)ccc5c4OCO5)ncnc3c2)CC1 [saracatinib]
Outline: (§1)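 K562 cells (2×10^6 cells/mL) were treated with 10 μM compound for 30 min, and aliquots were heated for 3 min over 48°C-58°C. Pooled aliquots were extracted in PBS with 0.5% NP-40 at 4°C, and the supernatant after 21,000xg for 90 min was measured by TMTpro 16plex LC-MS/MS with channel sums equalised. Reported thermal stability, relative to control samples and from duplicates, is a log2 fold change.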

sotrastaurin = compound: CN1CCN(c2nc(C3=C(c4c[nH]c5ccccc45)C(=O)NC3=O)c3ccccc3n2)CC1 [sotrastaurin]
Outline: as §1

Tubastatin A = compound: CN1CCc2c(c3ccccc3n2Cc2ccc(C(=O)NO)cc2)C1 [Tubastatin A]
Outline: as §1

[1] = compound: CNC(=O)C1=CC=CC=C1NC2=NC(=NC=C2Cl)NC3=C(C=C(C=C3)N4CCOCC4)OC
Outline: as §1

defactinib = compound: CNC(=O)c1ccc(Nc2ncc(C(F)(F)F)c(NCc3nccnc3N(C)S(C)(=O)=O)n2)cc1 [defactinib]
Outline: as §1

rucaparib = compound: CNCc1ccc(-c2[nH]c3cc(F)cc4c3c2CCNC4=O)cc1 [rucaparib]
Outline: as §1

[2] = compound: CNc1nc(-c2ccc3c(N)n[nH]c3c2)cc(N2C[C@@H](C(=O)NC3CCCCC3)CC[C@H]2C)n1
Outline: as §1

encorafenib = compound: COC(=O)N[C@@H](C)CNc1nccc(-c2cn(C(C)C)nc2-c2cc(Cl)cc(NS(C)(=O)=O)c2F)n1 [encorafenib]
Outline: as §1

[3] = compound: COC(=O)[C@H](CCSC)NC(=O)C1=C(C=C(C=C1)NC[C@H](CS)N)C2=CC=CC=C2
Outline: as §1

alvocidib = compound: CN1CC[C@H](c2c(O)cc(O)c3c(=O)cc(-c4ccccc4Cl)oc23)[C@H](O)C1 [alvocidib]
Outline: as §1

Measured: log2 fold change

CLPP (UniProt Q16740)
inactive: saracatinib 0 | sotrastaurin 0.009 | Tubastatin A 0.067 | [1] 0.054 | defactinib -0.017 | rucaparib 0.026 | [2] -0.028 | encorafenib -0.077 | [3] -0.038

CLSTN1 (UniProt O94985)
inactive: saracatinib -0.333 | sotrastaurin 0.31 | alvocidib -0.041 | Tubastatin A -0.122 | rucaparib -0.199 | [2] -0.222 | encorafenib -0.179

CLTB (UniProt P09497)
inactive: saracatinib 0.064 | sotrastaurin 0.017 | Tubastatin A -0.019 | [1] -0.034 | defactinib 0.063 | rucaparib -0.039 | [2] -0.009 | encorafenib -0.014 | [3] 0.031

CHPF2 (UniProt Q9P2E5)
inactive: saracatinib -0.247 | sotrastaurin -0.009 | alvocidib 0.198 | Tubastatin A 0.185 | [1] 0.028 | defactinib 0.112 | [2] -0.036 | [3] -0.196

CHMP7 (UniProt Q8WUX9)
inactive: saracatinib -0.078 | sotrastaurin -0.091 | alvocidib -0.015 | Tubastatin A -0.076 | [1] 0.01 | rucaparib -0.147 | [2] 0.04 | encorafenib 0.078

CNOT4 isoform 6 (UniProt O95628)
inactive: saracatinib 0 | sotrastaurin 0.003 | Tubastatin A -0.003 | [1] -0.014 | defactinib -0.03 | rucaparib -0.044 | [2] -0.07 | encorafenib -0.023 | [3] -0.015

CLIC6 (UniProt Q96NY7)
inactive: saracatinib -0.039 | sotrastaurin 0.077 | Tubastatin A -0.01 | defactinib 0.012 | rucaparib -0.133 | [2] -0.284 | encorafenib -0.007 | [3] 0.105

CLPTM1L (UniProt Q96KA5)
inactive: saracatinib 0.11 | sotrastaurin -0.013 | Tubastatin A -0.008 | [1] -0.057 | defactinib -0.042 | rucaparib -0.011 | [2] -0.099 | encorafenib 0.021 | [3] 0.043

COIL (UniProt P38432)
inactive: saracatinib -0.023 | sotrastaurin -0.23 | Tubastatin A 0.008 | [1] 0.1 | rucaparib -0.268 | [2] -0.029 | encorafenib 0.077

CHUK (UniProt O15111)
inactive: saracatinib -0.144 | alvocidib 0.241 | Tubastatin A 0.171 | defactinib 0.175 | [2] 0.123 | [3] -0.222

CHP1 (UniProt Q99653)
inactive: saracatinib -0.09 | sotrastaurin 0.068 | Tubastatin A 0.041 | [1] 0.085 | defactinib -0.006 | rucaparib 0.068 | [2] -0.219 | encorafenib -0.016 | [3] 0.021

CNOT1 (UniProt A5YKK6)
inactive: saracatinib -0.025 | sotrastaurin -0.087 | Tubastatin A -0.003 | [1] 0.03 | defactinib -0.057 | rucaparib 0.077 | [2] 0.024 | encorafenib 0.074 | [3] -0.031

CIT isoform 4 (UniProt O14578)
inactive: saracatinib -0.044 | sotrastaurin -0.033 | Tubastatin A 0.074 | [1] 0.054 | defactinib -0.034 | rucaparib -0.202 | [2] -0.055 | encorafenib -0.025 | [3] -0.001

CLCN7 (UniProt P51798)
inactive: saracatinib 0.004 | sotrastaurin -0.112 | Tubastatin A -0.071 | [1] 0.044 | defactinib 0.025 | rucaparib -0.052 | [2] -0.156 | encorafenib 0.151 | [3] -0.04

COG6 (UniProt Q9Y2V7)
inactive: saracatinib -0.292 | alvocidib -0.031 | Tubastatin A 0.083 | [1] 0.062 | defactinib 0.082 | [2] 0.009 | [3] -0.356

CMTM3 (UniProt Q96MX0)
inactive: saracatinib -0.006 | sotrastaurin -0.01 | Tubastatin A -0.012 | [1] -0.019 | defactinib -0.096 | rucaparib 0.129 | [2] -0.075 | encorafenib -0.072 | [3] 0.05

CIR1 (UniProt Q86X95)
inactive: saracatinib -0.02 | sotrastaurin -0.039 | Tubastatin A 0.078 | [1] -0.061 | defactinib 0.418 | rucaparib 0.102 | [2] 0.057 | encorafenib 0.04 | [3] 0.207

CHST14 (UniProt Q8NCH0)
inactive: saracatinib -0.005 | alvocidib 0.06 | Tubastatin A -0.043 | [1] -0.051 | defactinib 0.015 | [2] -0.005 | [3] 0.029

COCH (UniProt O43405)
inactive: saracatinib 0.126 | sotrastaurin 0.01 | Tubastatin A -0.036 | [1] 0.031 | defactinib 0.1 | rucaparib 0.011 | [2] -0.139 | encorafenib -0.074 | [3] 0.05

CIRBP (UniProt Q14011)
inactive: saracatinib -0.104 | alvocidib 0.164 | Tubastatin A 0.042 | defactinib 0.034 | rucaparib 0.308 | [2] 0.078 | encorafenib 0.042 | [3] 0.201

COG2 (UniProt Q14746)
inactive: saracatinib 0.001 | sotrastaurin -0.32 | Tubastatin A -0.08 | [1] -0.135 | rucaparib -0.272 | [2] -0.085 | encorafenib 0.007

COG3 (UniProt Q96JB2)
inactive: saracatinib -0.144 | alvocidib 0.101 | [1] 0.301 | defactinib 0.154 | rucaparib 0.256 | [2] 0.062 | encorafenib 0.034 | [3] -0.179

CLUH (UniProt O75153)
inactive: saracatinib -0.032 | sotrastaurin -0.141 | Tubastatin A 0.033 | [1] -0.049 | defactinib -0.04 | rucaparib 0.239 | [2] 0.133 | encorafenib -0.044 | [3] -0.046

CNN3 (UniProt Q15417)
inactive: saracatinib 0.063 | sotrastaurin -0.122 | Tubastatin A 0.02 | [1] 0.036 | defactinib -0.13 | rucaparib 0.048 | [2] 0.008 | encorafenib 0.009 | [3] 0

CIP2A (UniProt Q8TCG1)
inactive: saracatinib -0.443 | sotrastaurin 0.733 | [2] -0.409

CLN5 (UniProt O75503)
inactive: saracatinib -0.283 | sotrastaurin -0.008 | Tubastatin A 0.079 | [1] 0.032 | [2] -0.715

CHPT1 (UniProt Q8WUD6)
inactive: saracatinib -0.066 | sotrastaurin -0.016 | Tubastatin A -0.08 | rucaparib -0.069 | [2] 0.034 | encorafenib 0.103

CLINT1 isoform 3 (UniProt Q14677)
inactive: saracatinib 0.083 | sotrastaurin 0.041 | Tubastatin A -0.036 | [1] 0.185 | defactinib 0.035 | rucaparib 0.109 | [2] -0.06 | encorafenib -0.059 | [3] 0.012

CLN8 (UniProt Q9UBY8)
inactive: saracatinib 0.073 | sotrastaurin 0.107 | Tubastatin A -0.225 | [1] 0.022 | defactinib -0.062 | rucaparib -0.061 | [2] -0.292 | encorafenib -0.117 | [3] 0.05

CLCN3 isoform 2 (UniProt P51790)
inactive: saracatinib 0.104 | sotrastaurin -0.002 | Tubastatin A -0.06 | [1] -0.018 | defactinib -0.009 | rucaparib -0.002 | [2] -0.015 | encorafenib -0.027 | [3] -0.014
